# According to PubChem BioAssay (NCATS):
# Some of the results follow. The main result of the screen is listed elsewhere. These columns were measured beside it and carry no call. The list favours compounds with an active or inconclusive main result. Potencies come from curve fits of mixed quality, noted in brackets.
# Assay: S16 Schwann cell PMP22 intronic element beta-lactamase assay (AID 624044)
# Details: S16 rat Schwann cells, PMP22 element beta-lactamase FRET, 24 h; measured here: 460 nm blue channel
# Outline: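 Beta-lactamase reporter under a PMP22 intronic regulatory element in stable S16 rat Schwann cells; 24 h compound exposure. 460 nm blue signal normalized between DMSO (0%) and potassium clavulanate, with 535 nm FRET tracking viability; curves classed by r2 and response.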
row,SMILES,AC50
1,CCOC(=O)NC(O)C(Cl)(Cl)Cl (centres undefined),"14.1 µM [falling, single point]"
2,CN1C(=O)CC(=O)N(c2ccccc2)c2cc(Cl)ccc21,"0.0446 µM [falling, full curve, poor fit]"
3,CCS(=O)(=O)C(C)(C)S(=O)(=O)CC,"12.6 µM [falling, single point]"
4,COC(C(=O)C(O)C(C)O)C1Cc2cc3cc(OC4CC(OC5CC(O)C(OC)C(C)O5)C(OC(C)=O)C(C)O4)c(C)c(O)c3c(O)c2C(=O)C1OC1CC(OC2CC(OC3CC(C)(O)C(OC(C)=O)C(C)O3)C(O)C(C)O2)C(O)C(C)O1 (centres undefined),"0.0398 µM [falling, full curve]"
5,COc1cc(-c2ccc(-[n+]3nc(-c4ccccc4)nn3-c3ccc([N+](=O)[O-])cc3)c(OC)c2)ccc1-[n+]1nc(-c2ccccc2)nn1-c1ccc([N+](=O)[O-])cc1,"19.9 µM [falling, partial curve]"
6,C[C@]12CCC3C(CCC4=C(Cl)C(=O)CC[C@@]43C)C1CCC2O (some centres undefined),"7.94 µM [falling, partial curve, poor fit]"
7,COC([CH2][Hg])CNC(=O)c1ccccc1OCC(=O)O (centres undefined),"6.31 µM [falling, full curve, poor fit]"
8,C=CCC1(C(C)CCC)C(=O)N=C(S)NC1=O (centres undefined),"3.55 µM [falling, full curve, poor fit]"
9,CC(C)CCC(=O)OC1CCC2C3CCC4=CC(=O)CC[C@]4(C)C3CC[C@]12C (some centres undefined),"22.4 µM [rising, partial curve]"

# Quoted from the listing:
# Entry for CC(C)CCC(=O)OC1CCC2C3CCC4=CC(=O)CC[C@]4(C)C3CC[C@]12C (some centres undefined) under AC50: 22.4 µM [rising, partial curve]
# Entry for CCOC(=O)NC(O)C(Cl)(Cl)Cl (centres undefined) under AC50: 14.1 µM [falling, single point]
